Assay results taken from PubChem BioAssay AID445 (National Center for Advancing Translational Sciences (NCATS), 2006).
The list shows a part of the results. Further columns of the screen follow, without active or inactive calls. The list favours compounds with an active or inconclusive main result. Words in brackets tell the shape of the fitted curve; partial curves, single points and poor fits give uncertain potencies.

Experiment: IkB Signaling
Conditions: ABC-DLBCL IkBa-CBG/CBR dual luciferase ratio (green luciferase fused to IkBa over red control in OCI-Ly3 lymphoma cells), 4 h; measured here: control luc red channel unless noted
Outline: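 Curves were fitted separately to fusion (green), unfused (red) and ratio luminescence, then classed by r2, magnitude and activity. Cells: OCI-Ly3, 4 h compound plus doxycycline at 37C; 10 uM MG-132 defined full response.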
In the case of CCN(C(=O)CCS(=O)(=O)c1ccc2c(c1)oc(=O)n2C)c1ccc(OC)cc1, the AC50 is reported as 20 µM [falling, partial curve, poor fit].
With Cc1[nH]c2ccc(C(=O)Nc3ccc(F)cc3)cc2c1C the AC50 was 39.8 µM [falling, single point].
For Cc1ccccc1CN1C(=O)c2ccccc2S(=O)c2ccc(C(=O)NCc3ccco3)cc21 (stereo not drawn), the AC50 was 20 µM [falling, single point].
With Cc1ccc(NC(=O)CSc2nc3c(c(=O)[nH]2)CCC3)cc1Cl the AC50 was 10 µM [falling, partial curve].
With COc1ccc(NC(=O)c2oc3ccccc3c2NC(=O)c2ccco2)cc1 the AC50 was 5.01 µM [falling, partial curve].
With Cc1nc2cccc(C(=O)NCc3ccccc3)c2o1 the AC50 was 1.26 µM [falling, full curve].
In the case of CCn1c(COc2cccc(C)c2)nc2ccccc21, the AC50 is reported as 1.58 µM [rising, partial curve].
With O=S(=O)(c1ccc(Br)cc1)c1nc(-c2cccs2)oc1SCc1ccc(F)cc1 the AC50 was 6.31 µM [falling, single point].
For Cc1ccc(-c2nc(CN(C)C)cc(CN(C)C)c2O)cc1, the AC50 was 10 µM [falling, partial curve].
In the case of O=C(CC1Oc2ccccc2NC1=O)NCCCN1CCCC1=O (stereo not drawn), the AC50 is reported as 10 µM [falling, partial curve].
In the case of Cc1ccc(C)c(N2CCN(C(=O)C3CCN(C(=O)c4cc5sccc5n4C)CC3)CC2)c1, the AC50 is reported as 20 µM [falling, partial curve].
For O=C(c1ccc2c(c1)N(Cc1ccc(Cl)cc1)C(=O)c1ccccc1S2(=O)=O)N1CCC(Cc2ccccc2)CC1, the AC50 was 10 µM [falling, partial curve].
For O=C(c1ccc2c(c1)N(Cc1ccc(F)cc1)C(=O)c1ccccc1S2(=O)=O)N1CCCCCC1, the AC50 was 15.8 µM [falling, partial curve].
With CCOc1ccc(NC(=O)CSC2=Nc3ccccc3C3=NC(CC(=O)NCc4ccccc4OC)C(=O)N23)cc1 (stereo not drawn) the AC50 was 6.31 µM [rising, partial curve].
In the case of CCn1c(=O)c(C(=O)Nc2cccnc2)c(O)c2ccccc21, the AC50 is reported as 1.26 µM [falling, full curve, poor fit].
In the case of Cc1oc(-c2ccccc2F)nc1CS(=O)(=O)CC(=O)N1CCN(c2ccc(Cl)cc2)CC1, the AC50 is reported as 25.1 µM [falling, partial curve].
With COc1ccc(CCn2c(=O)c3ccccc3n(CC(=O)Nc3cccc(C)c3)c2=O)cc1OC the AC50 was 12.6 µM [falling, partial curve].
For CCN1c2ccccc2NC2C1C(C(C)=O)C(=O)N2c1ccc(Cl)cc1 (stereo not drawn), the AC50 was 6.31 µM [falling, partial curve].
For Cc1ccc(C)c(S(=O)(=O)c2cn(C)c3cc(F)c(F)cc3c2=O)c1, the AC50 was 10 µM [falling, partial curve].
In the case of COC(=O)c1sc(-c2ccccc2)cc1NC(=O)Nc1ccccc1Cl, the AC50 is reported as 25.1 µM [falling, partial curve].
In the case of CCOC(=O)N1CCc2c(sc3c2c(=O)n(Cc2ccccc2)c(=O)n3CC(=O)Nc2cccc(C)c2)C1, the AC50 is reported as 15.8 µM [falling, single point].
For CCCCC(=O)Nc1cc(-c2nc3cccnc3s2)ccc1C, the AC50 was 25.1 µM [falling, single point].
For CN(C)S(=O)(=O)c1ccc(C(=O)Nc2c(C(=O)Nc3ccc(F)cc3)oc3ccccc23)cc1, the AC50 was 25.1 µM [falling, single point].
In the case of CCOc1ccc(NC(=O)CSc2ncnc3c2sc2ccccc23)cc1, the AC50 is reported as 20 µM [rising, single point].
In the case of COc1ccccc1C(=O)Nc1c(C(=O)N2CCN(c3ccccc3F)CC2)oc2ccccc12, the AC50 is reported as 31.6 µM [falling, single point].
In the case of Cc1ccc(CNC(=O)c2ccc3c(c2)NC(=O)C(CS(=O)(=O)Cc2ccc(F)cc2)N3)cc1 (stereo not drawn), the AC50 is reported as 20 µM [falling, single point].
For Cc1ccc(NC(=O)Cn2c(=O)n(Cc3ccco3)c(=N)c3c4c(sc32)COC(C)(C)C4)cc1, the AC50 was 12.6 µM [falling, partial curve].
With CC(C)(C)c1ccc(C(=O)Nc2ccc(C(=O)OCc3cc(=O)n4ccsc4n3)cc2)cc1 the AC50 was 7.94 µM [falling, full curve].
With Cc1onc(-c2ccccc2)c1C(=O)Nc1sc2c(c1C(N)=O)CCC2 the AC50 was 31.6 µM [falling, single point].
In the case of Cc1cc(NC(=O)c2cc(-c3cccnc3)nc3c(C)c(C)ccc23)no1, the AC50 is reported as 12.6 µM [falling, partial curve].
With Cc1cccc(C2C=C(c3ccc(F)cc3)Nc3nc4ccccc4n32)c1 (stereo not drawn) the AC50 was 20 µM [falling, single point].
With Cc1ccc(NC(=O)c2cccc(OCc3c(C)noc3C)c2)c(C)c1 the AC50 was 39.8 µM [falling, single point].
In the case of CCOc1ccc(Cn2c(CNS(=O)(=O)c3ccc([N+](=O)[O-])cc3)nc3cccnc32)cc1, the AC50 is reported as 0.794 µM [rising, full curve].
With COc1ccc(C(=O)NCCSc2c(C)[nH]c3ccccc23)cc1 the AC50 was 12.6 µM [falling, partial curve].
For Cc1ccc(NC(=O)Nc2nnc(SCC(=O)N3CCC(C)CC3)s2)cc1, the AC50 was 15.8 µM [falling, partial curve].
With COc1ccc(-n2cc(C(=O)NC(C)c3ccccc3)c3ccccc3c2=O)cc1 (stereo not drawn) the AC50 was 25.1 µM [falling, single point].
In the case of CCOC(=O)c1ccc(-c2c(C(=O)OCC)oc3cc(O)c(CC)cc3c2=O)o1, the AC50 is reported as 15.8 µM [falling, partial curve].
In the case of O=C(NC1CCCC1)c1ccc(CSc2nc3ccncc3n2Cc2ccc(F)cc2)cc1, the AC50 is reported as 1.26 µM [falling, full curve].
In the case of COc1ccc(C(=O)NCCn2cc(SCC(=O)NCc3ccco3)c3ccccc32)cc1, the AC50 is reported as 15.8 µM [falling, partial curve].
For CCN1CCN(c2cc(C)c3cc(NC(=O)/C=C/c4cccc(Cl)c4)ccc3n2)CC1, the AC50 was 25.1 µM [falling, partial curve].
In the case of O=C(Nc1ccc(NC(=O)c2ccco2)nc1)c1ccccn1, the AC50 is reported as 12.6 µM [falling, partial curve].
For Cc1ccc(NC(=O)Cn2cc(S(=O)(=O)N3CCCC3)c(S(=O)(=O)N3CCCC3)c2)cc1C, the AC50 was 31.6 µM [falling, single point].
With CCOc1ccc(NC(=O)c2ccc(-c3cccc(Cl)c3C)o2)cc1 the AC50 was 3.98 µM [falling, partial curve].
In the case of COc1cccc(CNC(=O)NCc2noc3ccc(C)cc23)c1, the AC50 is reported as 25.1 µM [falling, single point].
With Cc1occc1-c1nnc(SCC(=O)Nc2ccccc2)n1Cc1ccccc1 the AC50 was 15.8 µM [falling, partial curve].
In the case of COc1ccccc1-c1cc(C(F)(F)F)nc(S(=O)(=O)CCCC(=O)Nc2ccc(F)c(Cl)c2)n1, the AC50 is reported as 3.16 µM [falling, partial curve].
With COc1ccc(C(=O)N2CCC(c3c[nH]c4ccccc34)(c3c[nH]c4ccccc34)CC2)cc1 the AC50 was 12.6 µM [falling, partial curve].
In the case of COc1ccccc1CNC(=O)c1oc2c(c1C)-c1nn(Cc3ccc(Cl)cc3)cc1CC2, the AC50 is reported as 12.6 µM [falling, partial curve].
For Cc1nc2nc(SCC(=O)NCc3ccccc3)nn2c(C)c1Cc1ccccc1, the AC50 was 6.31 µM [falling, partial curve].
For CC(C)CC(=O)Nc1ccc(Cl)c(-c2nc3ccccc3[nH]2)c1, the AC50 was 25.1 µM [falling, partial curve].
For COc1ccc(OC)c(CNC(=O)CN2C(=O)CCn3nc(-c4cn(C)c5ccccc45)cc32)c1, the AC50 was 15.8 µM [falling, partial curve].
With N#Cc1ccc(NS(=O)(=O)c2ccc(-c3cnc(C4CC4)o3)cc2)cc1 the AC50 was 25.1 µM [falling, partial curve].
In the case of CC1(C)Cc2cccc(OCC(=O)Nc3nccs3)c2O1, the AC50 is reported as 25.1 µM [falling, single point].
For COc1ccccc1NC(=O)CSC1=NC(=O)C(NC(C)=O)C(=O)N1 (stereo not drawn), the AC50 was 3.16 µM [falling, full curve].
In the case of Cc1ccc(C)n1-c1nnc(N2CCCC(C(=O)NCc3ccccc3)C2)s1 (stereo not drawn), the AC50 is reported as 20 µM [falling, partial curve].
For Cc1ccc(NC(=O)CCc2c(C)nc3nc(C)nn3c2C)c(Cl)c1, the AC50 was 25.1 µM [falling, partial curve].
For CNC(=O)c1ccc(Nc2nnc(-c3ccc(C)c(S(=O)(=O)N4CCOCC4)c3)c3ccccc23)cc1, the AC50 was 12.6 µM [falling, partial curve].
With COc1ccc(C2(O)CC3CCC(C2)N3c2cc(C)nc(-c3ccccc3)n2)cc1 (stereo not drawn) the AC50 was 12.6 µM [falling, partial curve].
For Cc1ccc(N2CC(NC(=O)CCc3ccccc3)CC2=O)cc1 (stereo not drawn), the AC50 was 0.794 µM [falling, partial curve].
For COc1cccc(CSc2nc3n(n2)C(c2cccnc2)C(C(=O)Nc2ccccc2C)=C(C)N3)c1 (stereo not drawn), the AC50 was 39.8 µM [falling, single point].
With COc1ccccc1NC(=O)CN(Cc1ccco1)C(=O)c1cccs1 the AC50 was 10 µM [falling, partial curve].
In the case of Cc1nc2cc(C(=O)O)ccc2n1-c1ccc(C(C)C)cc1, the AC50 is reported as 3.16 µM [rising, partial curve].
In the case of Cc1cccc(N2CCN(C(=O)Cn3c(=O)c4cccn4c4ccc(F)cc43)CC2)c1C, the AC50 is reported as 25.1 µM [falling, single point].
